Reference: doi:10.1101/282137
These are yes or no findings as the source states them, for the method shown. Binding seen in cells or lysates may run through a third protein. Binding can be weak; no strength is given. Tags and fused reporters may be left off the sequences shown.

Biological target: T1, CREB::GFP (C. elegans) (UniProt Q9U2I0)
T1 sequence: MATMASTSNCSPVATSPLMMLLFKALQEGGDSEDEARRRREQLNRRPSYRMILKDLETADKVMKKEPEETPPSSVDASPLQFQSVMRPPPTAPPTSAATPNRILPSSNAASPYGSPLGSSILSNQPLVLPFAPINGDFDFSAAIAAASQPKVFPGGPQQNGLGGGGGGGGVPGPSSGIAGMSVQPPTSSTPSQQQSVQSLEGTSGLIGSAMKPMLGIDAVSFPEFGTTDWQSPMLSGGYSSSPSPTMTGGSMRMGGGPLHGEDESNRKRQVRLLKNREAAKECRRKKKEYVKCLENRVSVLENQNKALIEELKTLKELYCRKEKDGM
Test: co-IP

Substance: THOC-1::3xHA::tdTomato (from UniProt Q9N5E3)
- binding: binds
